PubChem BioAssay AID493014 (National Center for Advancing Translational Sciences (NCATS), 2011)
In all, about 340,000 compounds went through this assay and about 170 (0.05%) were called active. This list was built around the results that the source calls inconclusive (neither active nor inactive); the mix of calls is not that of the screen. Calls follow the shape of the dose curve; as a rule, active = well fitted inhibition curve with a large enough effect in the signal ratio, with a control signal flat (not every such curve was filed as active); inconclusive = small, poorly fitted or top-dose-only effect, or effect the other way, or a change in a side signal; inactive = flat fitted curve, though single readings scatter; the % refers to the signal ratio. Potencies of inconclusive entries are doubtful fits and often do not repeat.

Test: qHTS Assay to Find Inhibitors of Chronic Active B-Cell Receptor Signaling;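 as to activity change, negative = inhibition: plate controls were basal doxycycline-induced cells for no effect and cells given 10 µM MG132 for full effect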
Details: ABC-DLBCL IkBa-CBG/CBR reporter, luminescence ratio (green luciferase fused to IkBa over red control in TMD8 lymphoma cells), 4 h; activity change, negative = inhibition: at 46.1 µM (top of the series) unless noted
Method in brief: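 TMD8 ABC-DLBCL cells carrying doxycycline-inducible green luciferase fused to IkappaBalpha plus unfused red luciferase were exposed to compounds (up to 46 uM) for 4 hrs at 37C. Activity came from the overlap-corrected green/red luminescence ratio.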
Potency is read from the fitted curve at half-maximal effect.

With `CN(CCO)C(=O)c1ccc(-c2nn(C)c(=O)c3ccccc23)cc1` as the compound, how does the activity change, negative = inhibition read?
Its activity change, negative = inhibition is inconclusive: 3.68%.

Which activity change, negative = inhibition does the source give for `CCn1nc(C(=O)Nc2ccc(Cl)c(S(=O)(=O)N3CCOCC3)c2)c2ccccc2c1=O` here?
The activity change, negative = inhibition was “inactive”.

Which Potency does the source give for `CCOC(=O)N1CCC(Nc2ncnc3c2cnn3-c2ccccc2)CC1` here?
The Potency was inconclusive: 8.2 µM [activator, single point].

For `CCCCN=Cc1c(C)[nH]n(-c2ccccc2)c1=S`, which activity change, negative = inhibition is on record?
Its activity change, negative = inhibition is inconclusive: -2.66%.

With `CCOc1ccccc1Nc1nc(-c2sc(NC(=O)c3ccco3)nc2C)cs1` as the compound, how does the Potency read?
The Potency was inconclusive: 12.6 µM [falling, partial curve].

With `C#CCOCCOCCOCCNc1nc(N2CCOCC2)nc(N2CCN(C(=O)CCCCCCCCCCNC(=O)[C@@H]([C@H](C)CC)n3cc(CCCCCN)nn3)CC2)n1` as the compound, how does the activity change, negative = inhibition read?
The activity change, negative = inhibition was “inactive”.

Which activity change, negative = inhibition does the source give for `COc1ccc(OCc2cc(C(=O)NCC3CCOCC3)no2)c(Cl)c1` here?
The activity change, negative = inhibition was inconclusive: 0.844%.

For `COCCOC(=O)C1=C(C)N(Cc2ccccc2)C(=O)NC1c1ccc(OC)cc1` (stereo not given), which Potency is on record?
Its Potency is inconclusive: 0.164 µM [falling, full curve].

Which Potency does the source give for `COc1cc(C2=NOC(C(=O)NCc3ccc(F)cc3)C2)cc(OC)c1OC` (stereo not given) here?
Its Potency is inconclusive: 9.2 µM [falling, partial curve].

Which activity change, negative = inhibition does the source give for `CN1CCC(N(C)C(=S)NC(=O)C23CC4CC(CC(C4)C2)C3)CC1` here?
The activity change, negative = inhibition was inconclusive: 11%.

Which activity change, negative = inhibition does the source give for `Nc1nnc(SCC(=O)Nc2nnc(-c3ccccc3)o2)s1` here?
Its activity change, negative = inhibition is “inactive”.

With `COc1ccc(-c2nc(CC(=O)O)cs2)cc1` as the compound, how does the activity change, negative = inhibition read?
Its activity change, negative = inhibition is inconclusive: 13.9%.

Which activity change, negative = inhibition does the source give for `COc1cccc(OC)c1C(=O)Nc1ccccc1NC(=O)c1c(OC)cccc1OC` here?
Its activity change, negative = inhibition is inconclusive: 1.54%.

For `CC1CCN(C(=O)c2cccc(NC(=O)c3cccs3)c2)CC1`, which activity change, negative = inhibition is on record?
Its activity change, negative = inhibition is inconclusive: -0.314%.

Which activity change, negative = inhibition does the source give for `Cc1noc(NC(=O)c2c(-c3c(Cl)cccc3Cl)noc2C)c1[N+](=O)[O-]` here?
Its activity change, negative = inhibition is inconclusive: 5.83%.

For `CCN(CC)C(=O)c1ccc(-c2cccs2)s1`, which activity change, negative = inhibition is on record?
The activity change, negative = inhibition was inconclusive: -16.4%.

Which activity change, negative = inhibition does the source give for `N#Cc1c(SCC(=O)Nc2nc3ccc(Br)cc3s2)sc2c(O)cc(=O)[nH]c12` here?
The activity change, negative = inhibition was “inactive”.

Which Potency does the source give for `O=C(N/N=C/c1ccccc1)c1c(O)c2ccccc2[nH]c1=O` here?
The Potency was inconclusive: 16.4 µM [falling, partial curve].

Which activity change, negative = inhibition does the source give for `CCN1CCN(CC(O)COc2cccc(OC)c2)CC1` (stereo not given) here?
The activity change, negative = inhibition was “inactive”.

With `COc1ccccc1CCNC(=O)COc1cccc2c1OC(C)(C)C2` as the compound, how does the activity change, negative = inhibition read?
Its activity change, negative = inhibition is “inactive”.

For `COc1ccc(/C(N)=N/OC(=O)c2ccco2)cc1`, which activity change, negative = inhibition is on record?
Its activity change, negative = inhibition is “inactive”.

For `O=S(=O)(Nc1ccncc1)c1ccc(Cl)cc1`, which activity change, negative = inhibition is on record?
Its activity change, negative = inhibition is “inactive”.

Which Potency does the source give for `O=C1CCCC(O)=C1N=Nc1cccc(S(=O)(=O)N2CCOCC2)c1` here?
The Potency was inconclusive: 0.1 µM [falling, full curve, poor fit].

For `Cc1ccc(CN(CC(=O)NC2CCCC2)C(=O)CSc2nnc(COc3ccccc3)o2)cc1`, which activity change, negative = inhibition is on record?
Its activity change, negative = inhibition is inconclusive: 3.48%.

For `Cc1ccc(OCC(=O)Nc2ccc(-c3nnc(-c4ccco4)o3)cc2)cc1`, which activity change, negative = inhibition is on record?
The activity change, negative = inhibition was inconclusive: 6.25%.

Which activity change, negative = inhibition does the source give for `CCN1CCN(C(=O)c2ccc3c(c2)N(Cc2ccccc2)C(=O)c2ccccc2S3(=O)=O)CC1` here?
Its activity change, negative = inhibition is “inactive”.

With `c1nc(CCO[C@H]2CCCCO2)cc2cc3c(cc12)OCO3` as the compound, how does the activity change, negative = inhibition read?
The activity change, negative = inhibition was inconclusive: -17.1%.

Which activity change, negative = inhibition does the source give for `c1ccc2c(NCC3CCCO3)nc(N3CCCCC3)nc2c1` (stereo not given) here?
Its activity change, negative = inhibition is inconclusive: 8.2%.

For `O=C(Nc1nc(-c2ccc3c(c2)OCO3)cs1)C1CC1`, which Potency is on record?
Its Potency is inconclusive: 0.366 µM [rising, full curve, poor fit].

With `C[C@H]1CN=C(N(C)C)N1CC1CCC(C(C)(C)C)CC1` (stereo not given in full) as the compound, how does the Potency read?
The Potency was inconclusive: 29.1 µM [falling, single point].

For `COc1ccc(Nc2nc3ccccc3n3nnnc23)cc1`, which Potency is on record?
The Potency was inconclusive: 5.8 µM [rising, partial curve, poor fit].

For `CCOC(=O)c1ccc(CNC(=O)C2CCC(=O)N(CCc3ccccc3)C2)o1` (stereo not given), which activity change, negative = inhibition is on record?
Its activity change, negative = inhibition is “inactive”.

Which Potency does the source give for `CCc1nnc(NC(=O)CSc2nnc(-c3ccccc3NC(=O)c3ccccc3)o2)s1` here?
Its Potency is inconclusive: 31.6 µM [cytotoxic, single point].

Which activity change, negative = inhibition does the source give for `CCN(CC)CCn1c2c(c(SCC(=O)Nc3cccc4ccccc34)nc1=O)CCCC2` here?
Its activity change, negative = inhibition is inconclusive: -11.2%.

Which activity change, negative = inhibition does the source give for `Oc1ccc2ccccc2c1CNc1ccc(Br)cc1` here?
Its activity change, negative = inhibition is inconclusive: -8.42%.

Which activity change, negative = inhibition does the source give for `Cc1[nH]c(=O)[nH]c(=O)c1CSc1nnc([C@@H](NC(=O)OC(C)(C)C)C(C)C)o1` here?
The activity change, negative = inhibition was inconclusive: -0.698%.

With `CCC(Sc1nc2cc(OC)c(OC)cc2c(=O)n1Cc1ccc(OC)cc1)C(=O)NCCOC` (stereo not given) as the compound, how does the Potency read?
The Potency was inconclusive: 4.47 µM [falling, full curve, poor fit].

With `CCC1CCCCN1CCN1C(=O)C2C(C(=O)Nc3ccc(OC)cc3)C3C=CC2(O3)C1C(=O)NC1CCCCC1` (stereo not given) as the compound, how does the activity change, negative = inhibition read?
The activity change, negative = inhibition was “inactive”.

For `CC(Oc1ccccc1)C(=O)N1CCN(C(=O)C(C)Oc2ccccc2)CC1` (stereo not given), which activity change, negative = inhibition is on record?
Its activity change, negative = inhibition is inconclusive: -4.36%.

With `Cc1ccc(S(=O)(=O)CCC(=O)NCCN2C(=O)S/C(=C/c3ccc(F)cc3)C2=O)cc1` as the compound, how does the Potency read?
The Potency was inconclusive: 29.1 µM [falling, single point].

Which activity change, negative = inhibition does the source give for `CC1CN(S(=O)(=O)c2ccc(C(=O)N3CCc4ccccc43)cc2)CC(C)O1` (stereo not given) here?
Its activity change, negative = inhibition is inconclusive: 11.9%.

With `COc1ccc(-n2c(=S)[nH]c3cc(C(=O)Nc4ccc(F)cc4)ccc3c2=O)c(OC)c1` as the compound, how does the activity change, negative = inhibition read?
Its activity change, negative = inhibition is inconclusive: 1.53%.

For `CC(C)(C)NC(=O)NCC1CCCC1NC(=O)NC(C)(C)C` (stereo not given), which activity change, negative = inhibition is on record?
The activity change, negative = inhibition was inconclusive: -0.854%.

With `Cc1c(-c2ccc(Cl)cc2)oc(=O)c2c(N)n(-c3ccccc3)nc12` as the compound, how does the activity change, negative = inhibition read?
Its activity change, negative = inhibition is “inactive”.

Which activity change, negative = inhibition does the source give for `CCC(C)NC(=O)Nc1ccc(Br)cc1Cl` (stereo not given) here?
Its activity change, negative = inhibition is inconclusive: 10.1%.

With `CC(C)Oc1cccc(C(=O)N/N=C/c2ccoc2)c1` as the compound, how does the Potency read?
Its Potency is inconclusive: 3.55 µM [falling, full curve].

Which activity change, negative = inhibition does the source give for `O=C(CCn1nnc2ccccc21)Nc1nnc(COc2ccccc2F)s1` here?
Its activity change, negative = inhibition is inconclusive: -25.2%.

With `O=C(O)c1ccc(CSc2nnc(COc3ccc(Cl)cc3Cl)o2)cc1` as the compound, how does the Potency read?
Its Potency is inconclusive: 29.1 µM [falling, single point].

Which activity change, negative = inhibition does the source give for `COc1ccccc1C(=O)COC(=O)CCCN=C1NS(=O)(=O)c2ccccc21` here?
Its activity change, negative = inhibition is inconclusive: 0.504%.

For `O=C(COc1ccc(Cl)cc1Cl)Nc1ccccc1NS(=O)(=O)c1cccs1`, which activity change, negative = inhibition is on record?
The activity change, negative = inhibition was inconclusive: 4.82%.
